According to PubChem BioAssay AID493014 (National Center for Advancing Translational Sciences (NCATS), 2011):
Some of the results follow. Shown are side measurements of this screen, not its main read-out; they come without a call. The list favours compounds with an active or inconclusive main result. Words in brackets tell the shape of the fitted curve; partial curves, single points and poor fits give uncertain potencies.

Test: qHTS Assay to Find Inhibitors of Chronic Active B-Cell Receptor Signaling
Conditions: ABC-DLBCL IkBa-CBG/CBR reporter, luminescence ratio (green luciferase fused to IkBa over red control in TMD8 lymphoma cells), 4 h
Method in brief: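 Concentration-response series (up to 46 uM) were applied to TMD8 dual-reporter cells for 4 h at 37C with doxycycline. Green/red ratio, after filter-overlap correction, defined %Activity; red signal alone was normalised to basal cells and zero luminescence.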

[1] = measured here: CBR red luminescence, cell number
[2] = measured here: IkBa-CBG green luminescence

Structure (SMILES) | AC50 [1] | AC50 [2]
COc1ccc(CCNc2cc(C)[nH]c(=O)c2)cc1OC | 0.447 µM [rising, full curve, poor fit] | –
COc1ccc2[nH]c(C(=O)Nc3ccc4c(c3)OCO4)cc2c1 | 2.82 µM [falling, full curve, poor fit] | –
O=C(O)c1cc(N/N=C/c2cccnc2)ccc1Cl | 10 µM [falling, partial curve] | –
O=C(Oc1ccc(Cl)c2cccnc12)c1cccnc1 | 22.4 µM [rising, partial curve, poor fit] | –
Cc1nc(NC(=O)/C=C/c2ccco2)sc1C | 1.84 µM [falling, full curve, poor fit] | –
COc1ccc(/C=C2/SC(=O)N(CCNC(=O)CC(NC(C)=O)c3ccccc3)C2=O)cc1 (stereo unspecified) | 31.6 µM [rising, single point] | –
COc1ccc(C(=O)Nc2nnc(CCc3ccccc3)s2)c(OC)c1 | 12.6 µM [rising, partial curve, poor fit] | –
CCSc1nnc(NC(=O)c2cc(C)oc2C)s1 | 0.651 µM [falling, partial curve, poor fit] | –
C[C@H](NC(=O)c1nc[nH]c1C(=O)NCCCCCNC(=O)OC(C)(C)C)c1ccccc1 | 29.1 µM [falling, single point] | –
Nc1c(C(=O)CSc2nccn2-c2ccc(Cl)cc2)c(=O)[nH]c(=O)n1C1CC1 | 23.1 µM [falling, single point] | –
C/C(=N\NC(=O)Cc1ccc(Br)cc1)c1cccnc1 | 22.4 µM [rising, single point] | –
CN(CC(=O)Nc1ccccc1C(F)(F)F)CC(=O)N1CCCCCC1 | 29.1 µM [rising, single point] | –
Cc1ccc(CNC(=O)C(=O)c2cn(CC(=O)N3CCCC3)c3ccccc23)cc1 | 0.794 µM [falling, full curve] | –
Cn1c(CCc2nc3ccccc3[nH]2)nnc1SCC#N | 15.8 µM [falling, partial curve, poor fit] | –
COc1ccccc1/C=C/C(=O)NNC(=O)c1cc(C)oc1C | 8.2 µM [falling, partial curve] | –
CCC(=O)Oc1c(C(=O)CC)cc2c(C)cc(=O)oc2c1C | 3.66 µM [falling, partial curve, poor fit] | –
Nc1ncnc2c1c(-c1ccc(Oc3ccccc3)cc1)cn2C1CCCC1 | 0.731 µM [falling, full curve] | –
CC(C)C1=C2OC(N)=C(C#N)C(C#N)=C2C(C)CC1 (stereo unspecified) | 17.8 µM [rising, partial curve, poor fit] | –
COc1ccc(NC(=O)N(C)C[C@H]2Oc3ccc(NC(=O)CCN4CCOCC4)cc3C(=O)N([C@@H](C)CO)C[C@H]2C)cc1 | 0.146 µM [rising, full curve, poor fit] | –
CCOc1ccc(CNC(=O)C(=O)c2cn(CC(=O)N3CCOCC3)c3ccccc23)cc1OC | 8.91 µM [falling, partial curve] | –
CCOC(=O)c1c(C)[nH]c(C)c1C(=O)COC(=O)c1cc2ccccc2cc1O | 5.17 µM [rising, single point] | –

Structure (SMILES) | AC50 [1] | AC50 [2]
CC(=O)Nc1ccc2nc(NC(=O)CS(=O)(=O)c3ccccc3)sc2c1 | 23.1 µM [falling, partial curve, poor fit] | –
O=C(O)CC1SC(=O)N(Cc2ccccc2)C1=O (stereo unspecified) | 14.1 µM [rising, single point] | –
CC(NS(=O)(=O)c1cc2c3c(c1)CCC(=O)N3CCC2)c1ccccc1 (stereo unspecified) | 9.2 µM [falling, partial curve, poor fit] | –
CSc1ccccc1NC(=O)CN1CCN(S(=O)(=O)c2ccccc2[N+](=O)[O-])CC1 | 29.1 µM [falling, single point] | –
O=C(Nc1ccc(F)cc1)Nc1ccccc1N1CCCCC1 | 7.08 µM [falling, partial curve, poor fit] | –
C=CCOc1ccc2oc(=O)cc(C)c2c1 | 18.4 µM [rising, partial curve, poor fit] | –
CN(C(=O)c1cc2sccc2n1C)C1CCCCC1 | 23.1 µM [falling, single point] | –
COc1ccccc1Nc1nc(-c2cccs2)cs1 | 0.316 µM [rising, full curve, poor fit] | –
O=C(COc1ccc(F)cc1)NCC1(N2CCCCC2)CCCCC1 | 0.116 µM [rising, full curve, poor fit] | –
CCN(CC)c1ccc2c(C)c(CO)c(=O)oc2c1 | 12.6 µM [rising, partial curve, poor fit] | 12.6 µM [falling, partial curve]
O=C(Nc1cccc(Cl)c1)c1cc(S(=O)(=O)N2CCOCC2)cs1 | 6.31 µM [falling, single point] | –
CCc1nnc(NC(=O)c2cccc(S(=O)(=O)N(C)c3ccccc3)c2)s1 | 18.4 µM [falling, single point] | –
Cc1cccc(NC(=S)N/N=C/C(C)c2ccccc2)c1C (stereo unspecified) | – | 35.5 µM [falling, partial curve, poor fit]
Cc1cccc(-c2nnn(Cc3nnc(NC(=O)c4ccccc4)s3)n2)c1 | 4.47 µM [rising, partial curve, poor fit] | –
CC(=O)Nc1cccc(NC(=O)CSc2ncc(C(=O)Nc3ccccc3)c(=O)n2C)c1 | 18.4 µM [falling, partial curve, poor fit] | –
O=C1C(C=NCC2CCCO2)=C(O)c2ccccc21 (stereo unspecified) | 31.6 µM [falling, single point] | –
COC(=O)C(C(=O)Nc1nc2ccccc2s1)C1CCCC1 (stereo unspecified) | 10 µM [falling, partial curve, poor fit] | 15.8 µM [rising, partial curve, poor fit]
COc1ccc(Br)cc1-c1noc(-c2ccncc2)n1 | 0.731 µM [rising, full curve, poor fit] | –
CN(C)c1ccc(/C=N/NC(=O)c2ccccc2O)o1 | 7.08 µM [falling, partial curve] | –
CC(C)Cc1nc(SCC(=O)NCc2ccccc2)n[nH]1 | 29.1 µM [rising, single point] | –
O=C(N/N=C/c1cccc([N+](=O)[O-])c1)c1cccs1 | 20.6 µM [falling, single point] | 18.4 µM [falling, single point]

Structure (SMILES) | AC50 [1] | AC50 [2]
O=C(c1cc2cc(F)ccc2[nH]1)N1CCc2ccccc2C1 | 0.1 µM [rising, full curve, poor fit] | –
c1ccc(CC2CCN(c3nc4ccccc4n4nnnc34)CC2)cc1 | 20.6 µM [falling, single point] | –
CCOc1ccc(Nc2nc(N(C)c3ccccc3)nc(N)c2[N+](=O)[O-])cc1 | 0.631 µM [rising, full curve, poor fit] | –
CCOc1ncccc1C(=O)OCC(=O)Nc1cc(S(=O)(=O)N2CCOCC2)ccc1C | 3.26 µM [rising, partial curve] | –
COc1ccc(NC2=C(C)C(=O)CC2)cc1 | 29.1 µM [rising, single point] | –
CC(C)OCCCNC(=O)c1cccs1 | 35.5 µM [rising, single point] | –
COc1ccc(S(=O)(=O)N2CCOCC2)cc1NC(=O)C1CCCN1C(=O)c1cccs1 (stereo unspecified) | 29.1 µM [rising, partial curve, poor fit] | –
COc1ccc(C(=O)/C(=C/c2cccs2)c2nc3ccccc3o2)cc1 | 0.259 µM [falling, full curve, poor fit] | –
CCOC(=O)c1c(C)oc2c1c(C=NCCO)c(O)c1ccccc12 | 35.5 µM [falling, single point] | –
COc1ccc2[nH]c3c(c2c1)CCN1C(=O)C(CC(=O)NCC24CC5CC(CC(C5)C2)C4)C[C@H](C(=O)N2CCOCC2)[C@@]31CCC1CCCC1 (stereo partly specified) | 1.03 µM [rising, partial curve] | –
COc1cccc(-n2nnnc2SCC(=O)N2CCCc3ccccc32)c1 | 11.2 µM [falling, partial curve, poor fit] | –
CC(C)=CCC/C(C)=C/CNC(=O)C[C@H]1C[C@H](C(=O)N2CCOCC2)[C@@]2(C)c3[nH]c4cc(CCC(=O)N(C)C)ccc4c3CCN2C1=O | 9.2 µM [falling, partial curve] | –
O=C(COC(=O)c1ccccc1SCC(=O)N1CCCC1)NC1CCCCC1 | 9.2 µM [rising, partial curve] | –
CCc1nc2oc3ccccc3c(=O)c2cc1C(=O)OC | 17.8 µM [rising, partial curve, poor fit] | –
O=C(NCC(c1ccco1)N1CCN(c2ccc(F)cc2)CC1)C(=O)NC1CC1 (stereo unspecified) | 0.92 µM [rising, full curve, poor fit] | –
O=C(NCCC1CCCCN1S(=O)(=O)c1cccs1)C(=O)Nc1ccc(F)cc1F (stereo unspecified) | 13 µM [falling, partial curve, poor fit] | –
COc1ccc2oc(C(=O)NC3(C)CCS(=O)(=O)C3)c(C)c2c1 (stereo unspecified) | 10.3 µM [rising, partial curve, poor fit] | –
COc1ccccc1OCCSc1nc2ccccc2n1CCO | 10 µM [falling, partial curve] | –
COCCNC(=O)c1nc2ccccc2s1 | 23.1 µM [falling, partial curve] | –
Cc1ccc(C(=O)N/C(=C\c2ccc(-c3ccc([N+](=O)[O-])cc3)o2)C(=O)NC2CCS(=O)(=O)C2)cc1 (stereo unspecified) | 7.31 µM [falling, partial curve] | –
C=C(C)c1cccc(C(C)(C)NC(=O)NCc2ccc(OC)c(OC)c2)c1 | 35.5 µM [falling, single point] | –

An excerpt from above in order of number of heavy atoms, largest number first:
Structure (SMILES) | AC50 [1] | AC50 [2]
COc1ccc2[nH]c3c(c2c1)CCN1C(=O)C(CC(=O)NCC24CC5CC(CC(C5)C2)C4)C[C@H](C(=O)N2CCOCC2)[C@@]31CCC1CCCC1 (stereo partly specified) | 1.03 µM [rising, partial curve] | –
CC(C)=CCC/C(C)=C/CNC(=O)C[C@H]1C[C@H](C(=O)N2CCOCC2)[C@@]2(C)c3[nH]c4cc(CCC(=O)N(C)C)ccc4c3CCN2C1=O | 9.2 µM [falling, partial curve] | –
Cc1ccc(C(=O)N/C(=C\c2ccc(-c3ccc([N+](=O)[O-])cc3)o2)C(=O)NC2CCS(=O)(=O)C2)cc1 (stereo unspecified) | 7.31 µM [falling, partial curve] | –
COc1ccc(S(=O)(=O)N2CCOCC2)cc1NC(=O)C1CCCN1C(=O)c1cccs1 (stereo unspecified) | 29.1 µM [rising, partial curve, poor fit] | –
O=C(NCCC1CCCCN1S(=O)(=O)c1cccs1)C(=O)Nc1ccc(F)cc1F (stereo unspecified) | 13 µM [falling, partial curve, poor fit] | –
O=C(NCC(c1ccco1)N1CCN(c2ccc(F)cc2)CC1)C(=O)NC1CC1 (stereo unspecified) | 0.92 µM [rising, full curve, poor fit] | –
CCOc1ccc(Nc2nc(N(C)c3ccccc3)nc(N)c2[N+](=O)[O-])cc1 | 0.631 µM [rising, full curve, poor fit] | –
COc1cccc(-n2nnnc2SCC(=O)N2CCCc3ccccc32)c1 | 11.2 µM [falling, partial curve, poor fit] | –
COc1ccc(C(=O)/C(=C/c2cccs2)c2nc3ccccc3o2)cc1 | 0.259 µM [falling, full curve, poor fit] | –
CCOC(=O)c1c(C)oc2c1c(C=NCCO)c(O)c1ccccc12 | 35.5 µM [falling, single point] | –
COc1ccccc1OCCSc1nc2ccccc2n1CCO | 10 µM [falling, partial curve] | –
COc1ccc2oc(C(=O)NC3(C)CCS(=O)(=O)C3)c(C)c2c1 (stereo unspecified) | 10.3 µM [rising, partial curve, poor fit] | –
O=C(c1cc2cc(F)ccc2[nH]1)N1CCc2ccccc2C1 | 0.1 µM [rising, full curve, poor fit] | –
CCc1nc2oc3ccccc3c(=O)c2cc1C(=O)OC | 17.8 µM [rising, partial curve, poor fit] | –
COc1ccc(NC2=C(C)C(=O)CC2)cc1 | 29.1 µM [rising, single point] | –
CC(C)OCCCNC(=O)c1cccs1 | 35.5 µM [rising, single point] | –
